Measurements reported in PubChem BioAssay AID504808 (Drosophila RNAi Screening Center, 2011).
In all, the deposit lists about 21,000 reagents; this is a random part of those with a known target gene and a result. In the full data, 18 (0.084%) got an active call. 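Raw counts without plate normalisation, one of two replicates; the ratio scores behind the calls were not deposited.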 The numbers tell different reagents against one gene apart. Names joined by + are all predicted targets of the reagent. Not given: the amount of reagent, the time to read-out.

Assay: 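Genes whose loss lifts activity of an E2F-responsive reporter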 (primary screen)
Cells: Drosophila S2 cells
Reagent: long dsRNA against Drosophila genes
Detection: 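Firefly luciferase driven by E2F sites, normalised to Renilla luciferase on the same minimal promoter, measured by plate reader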
Reading the numbers: E2F firefly: higher = more E2F reporter activity; Renilla normaliser: higher = more normaliser reporter signal
Call rule: 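Called active if the normalised E2F reporter went up by over 50%; the cutoff is arbitrary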

target gene,reagent,"E2F firefly, rep 1","Renilla normaliser, rep 1",activity call
Obp19a,1,1.46e5,7452,inactive
qkr54B,1,1.33e5,4990,inactive
CG10348,1,1.03e5,4274,inactive
Ets96B,1,1.06e5,5486,inactive
RabX2,1,62162,5295,inactive
PGRP-SB2,1,1.61e5,7801,inactive
lama,1,68544,3333,inactive
eEF1alpha2,1,81301,2179,inactive
eEF1alpha2,2,1.27e5,6858,inactive
Cse1,1,73374,4011,inactive
corto,1,1.24e5,5528,inactive
C3G,1,1.12e5,5360,inactive
C3G,2,6052,355,inactive
nmdyn-D7,1,1.42e5,6567,inactive
CG1677,1,1.27e5,6006,inactive
CG6443,1,75109,3236,inactive
CG5966,1,7963,800,inactive
uif,1,1.09e5,5041,inactive
uif,2,1.41e5,5176,inactive
ND-24L,1,1.40e5,6123,inactive
CG12991,1,1.59e5,6086,inactive
Zmynd8,1,1939,996,inactive
CG1208,1,67657,3041,inactive
Ns2,1,63234,3499,inactive
CG6701,1,3015,194,inactive
CG1943,1,1.44e5,6937,inactive
Takl1,1,83836,2552,inactive
RapGAP1,1,1.51e5,4948,inactive
RapGAP1,2,1.62e5,5843,inactive
RapGAP1,3,79999,3529,inactive
obst-I,1,77945,3775,inactive
CG34247,1,1.46e5,7635,inactive
Bet5,1,1.24e5,5937,inactive
CG1724,1,1.33e5,6116,inactive
slf,1,1.44e5,5273,inactive
CG15699 (retired record),1,1.48e5,4837,inactive
Tektin-A,1,85533,4069,inactive
Ir56c,1,1.47e5,5056,inactive
Nmd3,1,1896,896,inactive
Or42b,1,1.03e5,4845,inactive
Drep2,1,2735,213,inactive
CG11286,1,1.53e5,7432,inactive
frma,1,8242,820,inactive
CG11211,1,1.11e5,4854,inactive
CG9705,1,71206,3828,inactive
Cpr97Eb,1,1.17e5,6027,inactive
AhcyL2,1,1.07e5,6086,inactive
Thor,1,91128,4246,inactive
Sox102F,1,1932,832,inactive
dome,1,1.64e5,5480,inactive
CG14777,1,1.26e5,5266,inactive
CG10874,1,1.81e5,5638,inactive
CG32236,1,1.21e5,4516,inactive
CG42634 + CG42635,1,1.05e5,4743,inactive
CG30043,1,93436,4378,inactive
CG30423,1,1.27e5,5554,inactive
CG4456 + Hsp22,1,1.19e5,6127,inactive
CG4456 + Hsp22,2,65628,3492,inactive

Records above whose target name begins with O or o (3):
target gene,reagent,"E2F firefly, rep 1","Renilla normaliser, rep 1",activity call
Obp19a,1,1.46e5,7452,inactive
obst-I,1,77945,3775,inactive
Or42b,1,1.03e5,4845,inactive
